Measurements reported in article PMC12040169 (PLOS Biology, 2025).
Where two headings read alike, the source gives them in different places. The list shows a part of the results.

Tested on: T1, CTL2-GFP (C. trachomatis L2/434/Bu, GFP-expressing)
T1 construct: L2/434/Bu, GFP-expressing
Parameters: species or system HeLa; Intracellular C. trachomatis growth in HeLa cells, bulk GFP fluorescence relative to DMSO
Details: bulk GFP, single well, 28.5 h, 10 µM, inhibitor

SMILES	% of control remaining [%]	% of control remaining (Bulk GFP fluorescence) [%]
CC1(C)Cc2c(ccc3ccccc23)C(CCN2CCCCC2)=N1 [CBK261746]	94.4919	–
Cn1nccc1CNc1ncn(CC(=O)N2CCCCCC2)n1 [CBK306454]	118.956	–
OCc1ccc(CN2Cc3nc[nH]c3C[C@H]2c2nc(Cc3ccccc3)no2)o1 [CBK288955]	119.734	–
CC1CCCCN1S(=O)(=O)c1ccc(NC(=O)CCn2cnc3ccccc3c2=O)cc1 (centres unmarked) [CBK268495]	146.682	–
CCOc1cccc(NC(=O)/C(C#N)=C\c2cc(C)n(-c3cccc(C(=O)O)c3)c2C)c1 [CBK263186]	99.5464	–
O=C(NCc1ccccn1)c1cnn2c(C(F)(F)F)cc(-c3cccs3)nc12 [CBK268195]	144.852	–
CCOC(=O)C(NC(=O)c1cc[nH]n1)c1cccc(C)c1C (centres unmarked) [CBK304131]	98.6223	–
Cc1nc2c(c(=O)[nH]1)CC[C@@H]1CN(C(=O)C3CCCCC3)C[C@H]21 [CBK284407]	99.5373	–
Cn1c2ccccc2c2nnc(SCc3ccc4nonc4c3)nc21 [CBK267515]	128.24	–
COc1ccccc1Cn1nc2nnc(-c3ccc(F)cc3)c(-c3ccc(F)cc3)n2c1=O [CBK286184]	94.2951	–
Cc1scnc1CN1CCn2nc(C(O)Cc3ccccc3)cc2C1 (centres unmarked) [CBK307612]	173.995	–
C/C(=N\N1CCN(Cc2cccc3ccccc23)CC1)c1ccncc1 [CBK263574]	97.1379	–
Nc1ncc(-c2ccc(C(=O)N3CCOCC3)cc2)cc1C(=O)Nc1ccncc1 [CBK160202]	105.931	–
O=C(Nc1cccnc1)c1ccc(NC(=O)C2OCCc3ccccc32)cc1 (centres unmarked) [CBK269963]	123.641	–
CCC(CNC(=O)c1ccoc1C)N1CCCC1 (centres unmarked) [CBK304798]	102.518	–
O=C(O)c1ccc2c(c1)C(=O)N(c1ccc(-c3ccc(N4C(=O)c5ccc(C(=O)O)cc5C4=O)cc3)cc1)C2=O [CBK261187]	112.282	–
CCc1cc2c(NC(C(=O)O)C(C)C)ncnc2s1 (centres unmarked) [CBK265349]	100.416	–
Cc1ccc(NC(=O)NC(=O)C2CCN(CCCc3ccc(F)cc3)CC2)cc1Cl [CBK035057]	117.834	–
CN1CCN(CCC(=O)N/N=C/c2ccccc2O)CC1 [CBK261497]	114.732	–
Cc1nc(C2CCN(Cc3cccc(F)c3)CC2)ncc1C(=O)Nc1ccc(F)cc1 [CBK285668]	103.223	–
Clc1ccc(COc2nccnc2OC2CCN(CC3CC3)CC2)cc1Cl [CBK083123T]	–	85.3083
CC1CCc2c(sc(NC(=O)c3cccs3)c2C(=O)N(C)C)C1 (centres unmarked) [CBK307100]	126.362	–
CC(C)c1cc(C(=O)N(CCO)CC2CC3C=CC2C3)n(C)n1 (centres unmarked) [CBK282164]	115.306	–
Cc1ncsc1C(=O)N1CCN(Cc2ccco2)C[C@@H]1C(C)C [CBK285486]	103.389	–
CC1CCCC(C)N1c1nn(C)c(=O)[nH]1 (centres unmarked) [CBK019114]	127.33	–
O=C(CNC(=O)c1ccccc1)OCC(=O)c1ccc(Cl)c(Cl)c1 [CBK261611]	102.825	–

SMILES	% of control remaining [%]	% of control remaining (Bulk GFP fluorescence) [%]
O=C1N[C@]2(CCc3ccccc31)CN(Cc1ccsc1)C[C@H]2CO [CBK284793]	107.698	–
COc1ccc(Oc2nccnc2N2CCN(CCc3ccccn3)CC2)cc1OC [CBK083067T]	111.578	–
Cc1[nH]c2ccc(CNC(=O)Cn3ccnc3C(C)C)cc2c1C [CBK281540]	106.241	–
CCN(CC(=O)NCc1ccc(F)cc1)S(=O)(=O)c1c(C)n[nH]c1C [CBK306074]	129.609	–
Clc1ccc(COc2nccnc2OCCOc2ccccc2)cc1Cl [CBK161853]	108.078	–
CCCCOc1ccc(C(=O)N/C(=C/c2ccc(OC)cc2)C(=O)O)cc1 [CBK300490]	147.301	–
CCOC(=O)C1CCN(C(=O)c2c(-c3ccccc3)noc2C)CC1 [CBK158704]	122.56	–
Cc1ccc(C)c(OCC(=O)Nc2ccccc2C(=O)N2CCN(C)CC2)c1 [CBK269924]	111.939	–
COc1cc(CNC(C)c2ccccc2)ccc1OCC(N)=O (centres unmarked) [CBK269982C]	141.358	–
Cn1ncc2c1CCCN(C(=O)Cc1ccc(Cl)cc1)C2 [CBK285231]	122.662	–
O=C(N[C@@H](Cn1cc(F)c(=O)[nH]c1=O)C(=O)O)C1CCCC1 [CBK289660]	108.928	–
CC(=O)Nc1ccc(CNC(=O)c2cccnc2OCC(F)(F)F)cc1 [CBK305682]	92.8295	–
Cc1c(C(=O)NC(=S)Nc2ccc(O)c(-c3nc4ccccc4s3)c2)oc2ccccc12 [CBK264223]	114.262	–
COCCN1C(=O)C2(CC(=O)N(CC3CCCCC3)C2=O)c2ccccc21 (centres unmarked) [CBK075355]	100.349	–
COc1ccc(C(=O)N2CCC3(CCCN(CCCn4c(=O)[nH]c5ccccc54)C3)C2)cc1OC (centres unmarked) [CBK132856]	135.328	–
Cc1ccc(C(=O)Nc2cccc(-n3c(C)nc4ccccc4c3=O)c2)cc1 [CBK287725]	118.345	–
COc1ccc(C)c2sc(NC(=O)c3sc(C)nc3C)nc12 [CBK287401]	172.681	–
CSCC1CCCN(C(=O)c2cc3ncc(CCO)cn3n2)C1 (centres unmarked) [CBK307256]	149.527	–
Cn1ncc(Cl)c1C1CCCCCN1C(=O)c1cccnc1 (centres unmarked) [CBK285146]	132.91	–
Cc1ccc(C(=O)N(Cc2nc(-c3ccc(Cl)cc3)no2)C(C)C)cc1[N+](=O)[O-] [CBK268422]	108.604	–
Brc1ccc(CSc2ncn[nH]2)cc1 [CBK027819]	129.493	–
Cc1[nH]c2c(C)ccc(C)c2c1CC(=O)N1[C@@H](c2ccccc2F)C[C@@H]2NC(=O)CCC[C@H]21 [CBK286011]	133.261	–
Cc1oc2ccc(NS(=O)(=O)c3ccccc3)cc2c1C(=O)O [CBK287071]	108.111	–
CC(=O)N1CCN(c2ccc(Oc3ncc(C(F)(F)F)cc3Cl)cc2)CC1 [CBK161650]	93.776	–
COc1ccc(S(=O)(=O)N2CCC(C(=O)O)CC2)cc1C(=O)O [CBK092181]	116.47	–
Cc1c(C(N)=O)sc2nc(C(F)(F)F)cc(N)c12 [CBK061693]	99.0258	–

SMILES	% of control remaining [%]	% of control remaining (Bulk GFP fluorescence) [%]
Cc1cc(C(=O)N(C)CC2(C)COC2)nc2ccccc12 [CBK281956]	135.243	–
CC(=O)Nc1ccc(NCc2nc(C(C)C)no2)c(C(F)(F)F)c1 [CBK305743]	99.1443	–
COc1ccc(NC(=O)C2CC(=O)NC3=C2C(=O)CC(c2ccco2)C3)cc1 (centres unmarked) [CBK270282]	114.063	–
CC(=O)Nc1ccc(NC(=O)CCCC(=O)O)cc1 [CBK260984]	118.942	–
O=c1[nH]c2ncc(-c3cccc4ncccc34)nc2n1Cc1ccccc1 [CBK064245]	105.606	–
N=C1/C(=C/c2cn(Cc3ccccc3)c3ccccc23)C(=O)N=C2SC(COc3ccccc3)=NN12 [CBK264150]	90.509	–
Cc1ccc(CNc2nc3c(c(=O)[nH]c(=O)n3C)n2CC(O)COC(C)C)cc1 (centres unmarked) [CBK139849]	148.247	–
Cc1nc(N/C(=N/C(=O)c2ccccc2)NC(=O)c2ccccc2)nc2ccccc12 [CBK262529]	113.915	–
O=[N+]([O-])c1ccc(N2CCN(CCO)CC2)cc1NCc1ccccc1 [CBK042200]	115.973	–
Cc1cc2nc(N3CCN(C(=O)c4ccc(C#N)cc4)CC3)sc2cc1C [CBK287737]	117.371	–
COc1ccc(/C(N)=N/OC(=O)CN(C)S(=O)(=O)c2ccccc2)cc1 [CBK267683]	132.048	–
OCCn1ncc2c(Nc3cccc(Cn4cncn4)c3)ncnc21 [CBK305965]	109.371	–
N#CCCCN1CCCN(c2cc(OCC3COc4ccccc4O3)ncn2)CC1 (centres unmarked) [CBK083391T]	140.184	–
CC1CCN(c2ccc([N+](=O)[O-])c(N3CCC(C)CC3)c2)CC1 [CBK001367]	119.937	–
CC(=O)N1CC[C@@H](CC(=O)O)[C@@H](CC2=NCCc3ccc(C(C)(C)C)cc32)C1 [CBK289165]	139.071	–
COc1ccccc1CN(CC(C)(C)CN)C(=O)NCc1ccc(F)cc1 [CBK002470C]	88.8648	–
CN(C)c1ccc(-c2ncnn2CC(F)(F)F)cn1 [CBK307215]	70.0881	–
O=C(Cc1cc(F)cc(F)c1F)N1CCC(Sc2ccc(-c3ccccc3)cc2)CC1 [CBK131952]	103.188	–
Cc1ccc2cc(COC(=O)c3ccc(N4CCOCC4)nc3)c(Cl)nc2c1 [CBK295336]	150.713	–
Cc1nn(C)cc1S(=O)(=O)N1CCC(c2cccc(Cc3ccccc3Cl)n2)CC1 [CBK286115]	92.4584	–
CCCC/C=C/c1cnc2[nH]c(=O)n(CCc3cccnc3)c2n1 [CBK064496]	146.747	–
CC1CCc2c(sc3ncnc(NC4CCN(CC(N)=O)CC4)c23)C1 (centres unmarked) [CBK305008]	101.544	–
O=C(C1CCCCC1)N1CCCC(c2cc3cccnc3[nH]2)C1 (centres unmarked) [CBK284938]	88.9809	–
Cn1c(=O)c2[nH]c(N3CCCCC3)nc2n(C)c1=O [CBK027630]	87.5009	–
Cc1nc(CN2C(=O)CC(Cc3cnn(C)c3)C2=O)nc2ccccc12 (centres unmarked) [CBK305415]	117.04	–

An excerpt of these results, as comma-separated lines.
SMILES,% of control remaining [%],% of control remaining (Bulk GFP fluorescence) [%]
CC(=O)N1CC[C@@H](CC(=O)O)[C@@H](CC2=NCCc3ccc(C(C)(C)C)cc32)C1 [CBK289165],139.071,–
O=C(Cc1cc(F)cc(F)c1F)N1CCC(Sc2ccc(-c3ccccc3)cc2)CC1 [CBK131952],103.188,–
CC1CCc2c(sc3ncnc(NC4CCN(CC(N)=O)CC4)c23)C1 (centres unmarked) [CBK305008],101.544,–
Cn1c(=O)c2[nH]c(N3CCCCC3)nc2n(C)c1=O [CBK027630],87.5009,–
